{"source": "paper PMC11954736", "about": "(BioImpacts : BI, 2024)", "test_in_all_cases": "Cell viability assay", "key": {"B16": {"tested_on": "B16", "assay_type": "cell-based, murine", "details": "MTT, 48 h exposure; LD50: concentration that causes 50% of cell viability"}, "PC12 cells": {"tested_on": "PC12 cells", "assay_type": "cell-based, rat", "details": "MTT, 48 h exposure, studied concentrations"}, "MCF7": {"tested_on": "MCF7", "assay_type": "cell-based, human", "details": "MTT, 48 h exposure; LD50: concentration that causes 50% of cell viability"}}, "data": [{"smiles": "COc1cc2c(cc1OC)C(=O)C(CC1CCN(Cc3ccccc3)CC1)C2", "note": "(stereo not shown) [Donepezil]", "values": [{"measurement": "B16 (LD50 µM)", "setting": "B16", "result": 0.36, "unit": "µM"}, {"measurement": "PC12 (LD50 µM)", "setting": "PC12 cells", "result": "No growth inhibition*"}, {"measurement": "PC12 (LD50 µM)", "setting": "PC12 cells; listed as donepezil", "result": "no significant effect"}, {"measurement": "MCF7 (LD50 µM)", "setting": "MCF7", "result": 0.06, "unit": "µM"}]}]}
